Measurements as given in PubChem BioAssay AID1487 (National Center for Advancing Translational Sciences (NCATS), 2009).
The other results are listed elsewhere or left out. The main result of the screen is listed elsewhere. These columns were measured beside it and carry no call. Compounds called inactive in the main read-out are mostly missing here. Words in brackets tell the shape of the fitted curve; partial curves, single points and poor fits give uncertain potencies.

Assay: qHTS Assay for Modulators of Lamin A Splicing
Conditions: HeLa LMNA splicing GFP/RFP minigene ratio, 48 h
Procedure, shortened: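 Read-out is the ratio of GFP to DsRed2 object intensity, acquired by 488 nm laser-scanning cytometry on HeLa lamin A-EGFP minigene reporter cells. Compound incubation 48 hrs at 37 °C in Opti-MEM with 2% FBS; DMSO 0.5% final.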

[1] = measured here: RFP viability control channel
[2] = measured here: GFP splicing reporter channel

## CC(C)C(=O)NCc1cc(-c2ccc(Cl)cc2)no1
[1]
  AC50: 0.00891 µM [falling, full curve, poor fit]

## O=C(NNC(=O)C1CC1c1ccccc1)Nc1cccc(Cl)c1 (centres undefined)
[1]
  AC50: 0.00891 µM [falling, full curve, poor fit]

## O=[N+]([O-])c1ccc(Cl)c(CN2CCC(O)CC2)c1
[1]
  AC50: 35.5 µM [rising, single point]

## O=C(CSc1nnc(NC(=O)c2c(F)cccc2F)s1)Nc1ccc(F)cc1
[2]
  AC50: 1 µM [falling, full curve]
[1]
  AC50: 22.4 µM [falling, partial curve]

## CCN1C/C(=C/c2ccc(N3CCOCC3)cc2)C(=O)/C(=C/c2ccc(N3CCOCC3)cc2)C1
[2]
  AC50: 35.5 µM [falling, single point]
[1]
  AC50: 35.5 µM [falling, single point]

## Cc1ccc(C)c(N2CCN(C(=O)CN3C(=O)CSc4c3c(C)nn4-c3ccccc3)CC2)c1
[1]
  AC50: 0.00355 µM [falling, full curve, poor fit]

## CCC1=NN(C(=O)CCc2ccc3c(c2)OCO3)C(O)(C(F)(F)F)C1 (centres undefined)
[2]
  AC50: 17.8 µM [falling, partial curve, poor fit]
[1]
  AC50: 11.2 µM [falling, partial curve]

## CCN(CC)c1ccc(NC(=O)c2cccc(OC)c2)c(C)c1
[1]
  AC50: 11.2 µM [rising, partial curve]

## CC1(C)Cc2c(ccc3ccccc23)C(=O)N1
[2]
  AC50: 35.5 µM [falling, single point]

## O=c1cc(N2CCCCC2)c(-c2ccccc2)nn1Cc1ccccc1
[1]
  AC50: 39.8 µM [falling, partial curve, poor fit]

## Cc1ccc(C#CC[N+]2(CC#Cc3ccc(C)cc3)CCCCC2)cc1
[1]
  AC50: 0.891 µM [rising, full curve]

## COc1cc2c(cc1OC)C(c1ccccc1)N(C(=O)CCl)CC2 (centres undefined)
[2]
  AC50: 10 µM [falling, partial curve]
[1]
  AC50: 17.8 µM [falling, partial curve]

## Cc1c(Cl)c([N+](=O)[O-])nn1CCCC(=O)N(Cc1ccccc1)Cc1ccccc1
[1]
  AC50: 12.6 µM [rising, single point]

## Cc1ccc(NC(=O)CSc2nc3ccccc3c3nc(CCn4c(C)nc5ccccc54)nn23)cc1F
[2]
  AC50: 8.91 µM [falling, partial curve, poor fit]
[1]
  AC50: 7.94 µM [falling, partial curve]

## O=c1c2cc(NC(=S)NC3CC3)ccc2nc2n1CCCCC2
[1]
  AC50: 0.00501 µM [falling, full curve, poor fit]

## OC(CNCc1ccc(Cl)cc1)(c1ccccc1)c1ccc(F)cc1 (centres undefined)
[2]
  AC50: 1 µM [rising, single point]

## COc1ccc(CNCC(O)(c2ccccc2)c2ccc(Cl)cc2)cc1 (centres undefined)
[1]
  AC50: 12.6 µM [rising, single point]

## CC(=O)c1ccc(N2CCN(C(=O)C3CCN(S(=O)(=O)c4cccc5nonc45)CC3)CC2)cc1
[2]
  AC50: 0.398 µM [falling, full curve, poor fit]
[1]
  AC50: 1.58 µM [falling, full curve]

## COc1ccccc1N1CCN(C(CNC(=O)C2CCCCC2)c2cccnc2)CC1 (centres undefined)
[1]
  AC50: 11.2 µM [rising, partial curve]

## CCOc1ccccc1NC(=O)Cn1c(=O)ccc2cc(S(=O)(=O)N3CCC(C)CC3)ccc21
[2]
  AC50: 11.2 µM [falling, partial curve]

## COc1cc(CC(=O)N/N=C/c2ccccc2)c([N+](=O)[O-])cc1OC
[2]
  AC50: 0.0158 µM [falling, full curve, poor fit]
[1]
  AC50: 0.0178 µM [falling, full curve, poor fit]

## Cc1nc(N)sc1-c1csc(Nc2ccc(Cl)cn2)n1
[1]
  AC50: 20 µM [rising, single point]

## NC(=O)c1ccc(C(=O)c2ccc([N+](=O)[O-])cc2)cc1
[1]
  AC50: 3.16 µM [falling, partial curve]

## FC(F)(F)c1ccccc1/C=N/Nc1ccccn1
[1]
  AC50: 5.62 µM [rising, single point]

## COc1ccc(-c2cnc(C)o2)cc1S(=O)(=O)Nc1ccc(C)c(F)c1
[1]
  AC50: 2 µM [rising, full curve]

## CN1/C(=C\C=C2/C(=O)Oc3ccccc3C2=O)C(C)(C)c2ccccc21
[2]
  AC50: 4.47 µM [falling, full curve, poor fit]

## Cc1ccc(N=Nc2ccc(O)c3ncccc23)cc1
[2]
  AC50: 2.82 µM [rising, full curve]
[1]
  AC50: 3.55 µM [rising, full curve]

## O=C1OC(Nc2ccc3c(c2)OCO3)c2ccccc21 (centres undefined)
[2]
  AC50: 3.16 µM [falling, full curve]
[1]
  AC50: 15.8 µM [falling, partial curve, poor fit]

## CN(C)c1ccc(/C=N/N=C(N)N)cc1[N+](=O)[O-]
[2]
  AC50: 35.5 µM [falling, single point]

## CCOc1ccc(CNC(=O)c2ccc3nc(Cc4ccc(OC)cc4)oc3c2)cc1OC
[2]
  AC50: 0.355 µM [falling, full curve, poor fit]
[1]
  AC50: 0.891 µM [falling, full curve, poor fit]

## CC1(C)CC(=O)C2=C(C1)N=C1c3ccccc3C(=O)C1C2c1ccc(Cl)cc1 (centres undefined)
[1]
  AC50: 11.2 µM [rising, partial curve]

## CCCNc1nc2c(c(=O)n(C)c(=O)n2C)n1Cc1cccc(C)c1
[2]
  AC50: 25.1 µM [rising, partial curve, poor fit]
[1]
  AC50: 7.94 µM [rising, partial curve]

## Cc1ccc(-n2nnnc2Sc2ccc(S(=O)(=O)NCCN(C)C)cc2[N+](=O)[O-])cc1
[2]
  AC50: 35.5 µM [falling, single point]
[1]
  AC50: 35.5 µM [falling, single point]

## CN(C(=O)COC(=O)c1ccc2[nH]c3c(c2c1)CCCC3)C1CCS(=O)(=O)C1 (centres undefined)
[2]
  AC50: 0.0251 µM [falling, full curve, poor fit]

## COCC(=O)NNC(=O)c1ccc(OC)cc1
[1]
  AC50: 35.5 µM [falling, single point]

## CS(=O)(=O)N1CCN(C(=O)NC2CCCCC2)CC1
[2]
  AC50: 11.2 µM [falling, single point]
[1]
  AC50: 11.2 µM [falling, partial curve, poor fit]

## CCOC(=O)C1C(=O)C=C(c2ccc(C)cc2)CC1c1ccc([N+](=O)[O-])cc1 (centres undefined)
[1]
  AC50: 2.51 µM [rising, partial curve, poor fit]

## COc1ccc(Cn2c(C3CC3)nc3ccc(NC(=O)C4CC4)cc3c2=O)cc1
[2]
  AC50: 1.26 µM [rising, full curve, poor fit]
[1]
  AC50: 1.41 µM [rising, partial curve]

## NC(=O)C1CCN(Cc2nnnn2Cc2ccco2)CC1
[1]
  AC50: 3.98 µM [falling, full curve, poor fit]

## CCOC(=O)c1cnc2ccc(F)cc2c1Nc1ccc2c(c1)OCCO2
[1]
  AC50: 35.5 µM [rising, single point]

## Cc1ccc(Oc2cc(NC(=O)CCCn3nc([N+](=O)[O-])cc3C)cc([N+](=O)[O-])c2)cc1
[2]
  AC50: 35.5 µM [rising, single point]
[1]
  AC50: 35.5 µM [rising, single point]

## CN(C)C(=O)c1ccc(-c2ccc3ncnc(N(C)Cc4ccco4)c3c2)cc1
[2]
  AC50: 12.6 µM [falling, partial curve]
[1]
  AC50: 0.891 µM [falling, partial curve]

## Cc1ccc2cc(CN(CC3CCCO3)C(=S)NCc3ccco3)c(=O)[nH]c2c1C (centres undefined)
[1]
  AC50: 12.6 µM [rising, partial curve]

## O=C(NCC1CCCO1)c1ccccc1-c1nc(-c2ccc(F)cc2)no1 (centres undefined)
[1]
  AC50: 0.708 µM [rising, full curve, poor fit]

## CCOC(=O)c1ccc(NC(=O)CN2C(=O)NC3(CCCCCC3)C2=O)cc1
[1]
  AC50: 0.224 µM [falling, full curve, poor fit]

## CCOC(=O)c1c(C2CC2)csc1NC(=O)COC(=O)c1ccc[n+]([O-])c1
[1]
  AC50: 12.6 µM [rising, partial curve, poor fit]

## C[C@@H](C(=O)NCCc1c[nH]c2ccccc12)[C@@H]1C[C@@]1(C)[C@@H](NC(=O)OCc1ccccc1)c1ccccc1
[2]
  AC50: 10 µM [rising, single point]
[1]
  AC50: 12.6 µM [rising, partial curve]

## Cc1cc(C)nc(NNC2=CC(=O)CC(C)(C)C2)n1
[1]
  AC50: 5.62 µM [rising, partial curve]

## COc1ccc(-c2nc(NC(=O)c3ccc(OCC(=O)N4CCOCC4)c(OC)c3)sc2C)cc1
[1]
  AC50: 15.8 µM [rising, single point]

## CS(=O)(=O)N1CCc2cc(S(=O)(=O)N3CCN(Cc4ccc5c(c4)OCO5)CC3)ccc21
[2]
  AC50: 12.6 µM [rising, partial curve]
[1]
  AC50: 15.8 µM [rising, single point]

## COc1cc(/C=C(\C#N)c2[nH]nc(N)c2C#N)cc(OC)c1O
[1]
  AC50: 35.5 µM [rising, single point]

## Clc1ccc(-c2csc(=Nc3cccnc3)n2CCCn2ccnc2)cc1Cl
[2]
  AC50: 11.2 µM [rising, partial curve]
[1]
  AC50: 25.1 µM [rising, single point]

## COc1cc(C(=O)NC(=S)Nc2nccs2)cc(OC)c1OC
[1]
  AC50: 22.4 µM [falling, partial curve, poor fit]

## COc1ccc(N2CCN(C(=O)CCS(=O)(=O)c3cc4c(cc3Cl)NC(=O)CO4)CC2)cc1
[2]
  AC50: 35.5 µM [falling, single point]
[1]
  AC50: 35.5 µM [falling, single point]
